Some of the results follow.
B1: il10ra_site1_sap_20_mot_HHH_b2_06602_000000226_0001_1_16_H_._HHH_b1_03811_0001_0000900013_0000001_0_0001 (protein)
chain: SSSSDEEEERFEELERLARELGNYILEHVLKFMLEIFEQTGDPRALRSAEESVRLIEEARSSSSS
B2: il10ra_site1_sap_22_mot_HHH_b1_02809_af2_000000277_0001_40_57_H_._HHH_b2_00372_af2_0001_0000300014_0000002_0_0001_af2pred_dldesign_0_af2pred (protein)
chain: SPLDELIALLAEVMGVPPEEVRRRLAELTAVTGDPREALRALVARAILRDPSHKEELESLLAKVE
B3: il10ra_site1_normal_mot_HHH_b1_02881_000000027_0001_1_20_H_._HHH_b1_06219_0001_0000400018_0000001_1_af2pred_dldesign_0_af2pred (protein)
chain: SSSSSSLVEEAKRLYEEGQALLAAGDLERLAEVIEELRKKYEETKHLAYESALRALERALSSSSS
B4: il10ra_site1_normal_mot_HHH_b1_06914_000000280_0001_1_18_H_._0e0d001460a8a8fa579fa20b8409dbd9_0001_1_0001_0000100003_0000001_0_af2pred_dldesign_0_af2pred (protein)
chain: SLLDRALELLLRDPDPAVRAEAERLRELLAAGSVPEEELLVRAIRLLAEAGRPEEAARLAREFLK
B5: il10ra_site1_normal_mot_8756ee2cf497b5429c717dfc0c0bcfd6_0001_000000186_0001_1_13_H_._HHH_b2_03896_0001_0000200012_0000001_0_af2pred_0001 (protein)
chain: SSSSSELAERIRELLRLVSELDLNGNPEEAEEVLEEARELAERAGNLVLEAQIRFLEEILNSSSS
B6: il10ra_site1_normal_mot_HHH_b2_02337_000000026_0001_38_52_H_._HHH_b1_03083_0001_0000200009_0000002_0 (protein)
chain: SSSSDVEEEVEELLEEIERLIEEGDFERAARLLAEATHVALRGQNQELLQRVWRLVQELYSSSSS
B7: il10ra_site1_sap_10_mot_HHH_b1_06914_000000280_0001_1_18_H_._HHH_b2_00948_0001_0000200009_0000001_0_0001 (protein)
chain: SSSSDRREIYELSRRAVELDSDGNPEEAEEVLREAIRLAEEAGDMVLLAVLEYLLRLLEENSSSS
B8: il10ra_site1_sap_8_mot_HHH_b1_02062_000000185_0001_1_20_H_._HHH_b1_08343_0001_0000200014_0000001_0_0001 (protein)
chain: SSSSDDYEFVEKAIEEAIKLYREGNPEEAQRLLREAEEYLEEKNNWAALFSIRHLLRVVENSSSS
B9: il10ra_site1_sap_19_mot_39a7b8d0c4c3fc04bafbda6ce6101d3a_0001_1_af2_000000014_0001_34_48_H_._HHH_b2_05756_0001_0000400014_0000001_1_0001 (protein)
chain: SSSSSEVEALAEAWKRALKELLEEGDPDQARVVAWLARWSLEEKGNPELAEEIEELYEELSSSSS
B10: il10ra_site1_sap_19_mot_HHH_b1_05357_000000034_0001_23_39_H_._HHH_b2_00301_0001_0000300008_0000001_0_0001 (protein)
chain: SSSSSSSWERSVELSIEAARRVEDPHLARAALRLAAEAARHSGNEELLEEAERLLEELRSSSSSS
B11: il10ra_site1_normal_mot_HHH_b2_00984_000000042_0001_1_20_H_._HHH_b2_07840_0001_0000100009_0000001_0 (protein)
chain: SSSSSSDLEELTEELEEAVREGDSEKASQIAQEAVRLAHRLRDQEALQELWELIQLVASSSSSSS
B12: il10ra_site1_sap_16_mot_HHH_b1_02690_000000078_0001_1_19_H_._HHH_b1_06328_0001_0000100001_0000003_0_0001 (protein)
chain: SSSSQEAYELLRRAIEELIELARKNDEEELERLVEEVAKELEKLGDTISVFVLRNALEILKSSSS
B13: il10ra_site1_sap_27_mot_HHH_b2_03565_000000130_0001_23_39_H_._HHH_b2_02910_0001_0000100007_0000001_0_0001 (protein)
chain: SSSSDEASQRIYRLLEEVARLDHEGDEEEARELLEEARELAEEANNRNLLMQIEFLEKLLNSSSS
B14: il10ra_site1_normal_mot_HHH_b2_05323_000000159_0001_1_18_H_._HHH_b2_06508_0001_0000600022_0000001_0 (protein)
chain: SSSSSALELVLEVFRLALRGNPEEALELLEEALELAREAGNERLVRVIEELAQALEAELGSSSSS
B15: il10ra_site1_sap_14_mot_HHH_b2_03220_af2_000000223_0001_23_40_H_._HHH_b2_04050_af2_0001_0000100005_0000002_0_0001 (protein)
chain: SSSSNEANQEALELSQKAFHLALRGNPEEAREVLEEAAELAREANNERLLKQIESLLKAQKSSSS
B16: il10ra_site1_normal_mot_HHH_b1_07094_000000116_0001_18_34_H_._HHH_b1_08730_0001_0000100011_0000002_0_af2pred_0001 (protein)
chain: SSSSSEDEEEIEELLEEAKRIEDEKELFEVLMEAYRIAVRNNNPEIVRLVSQVLAELSKRSSSSS
B17: il10ra_site1_normal_mot_HHH_b1_05357_000000034_0001_23_39_H_._HHH_b2_00663_0001_0000700041_0000001_0_af2pred_0001 (protein)
chain: SSSSSSDEEEVERLLEEAKHVPDPHRRAYLLIRAFAVAYKSNDPELRELVKEVAQKLLQSSSSSS
B18: il10ra_site1_normal_mot_HHH_b2_03183_af2_000000055_0001_40_56_H_._HHH_b1_06261_af2_0001_0000200010_0000001_0 (protein)
chain: SSSSSQEEELARAVARLIRQALEFGDKRAVRFLLEALEILAEELNDEELKEFIEEVEELISSSSS
B19: il10ra_site1_normal_mot_0eddeacbb14b769e73e254714f31e2f9_0001_af2_000000203_0001_37_51_H_._HHH_b1_03453_0001_0000100005_0000001_0_af2pred_0001 (protein)
chain: SSSSSSDDEVIRLAAEIALLLRRGNEEEAEKLLEEARELAKELNNPELERLLEILVRLTSSSSSS

molecular target: il10ra, Q13651; assay: yeast display titration

Q: B1 was tested. Which “apparent Kd” value did it give?
A: The value was “inactive: no binding seen”.

Q: B2 was tested. Which “apparent Kd” value did it give?
A: The value was “inactive: no binding seen”.

Q: Which “apparent Kd” value does the source give for B3 here?
A: Its value is “inactive: no binding seen”.

Q: With B4 as the binder, how does the “apparent Kd” value read?
A: The value was “inactive: no binding seen”.

Q: Which “apparent Kd” value does the source give for B5 here?
A: The value was “inactive: no binding seen”.

Q: For B6, which “apparent Kd” value is on record?
A: The value was “inactive: no binding seen”.

Q: With B7 as the binder, how does the “apparent Kd” value read?
A: The value was “inactive: no binding seen”.

Q: With B8 as the binder, how does the “apparent Kd” value read?
A: Its value is “inactive: no binding seen”.

Q: With B9 as the binder, how does the “apparent Kd” value read?
A: Its value is “inactive: no binding seen”.

Q: B10 was tested. Which “apparent Kd” value did it give?
A: The value was “inactive: no binding seen”.

Q: B11 was tested. Which “apparent Kd” value did it give?
A: Its value is “inactive: no binding seen”.

Q: With B12 as the binder, how does the “apparent Kd” value read?
A: The value was “inactive: no binding seen”.

Q: How did the “apparent Kd” value turn out when B13 was run?
A: The value was “inactive: no binding seen”.

Q: For B14, which “apparent Kd” value is on record?
A: The value was “inactive: no binding seen”.

Q: For B15, which “apparent Kd” value is on record?
A: Its value is “inactive: no binding seen”.

Q: For B16, which “apparent Kd” value is on record?
A: Its value is “inactive: no binding seen”.

Q: B17 was tested. Which “apparent Kd” value did it give?
A: The value was “inactive: no binding seen”.

Q: With B18 as the binder, how does the “apparent Kd” value read?
A: Its value is “inactive: no binding seen”.

Q: B19 was tested. Which “apparent Kd” value did it give?
A: Its value is “inactive: no binding seen”.
